# The list shows a part of the results.
# By UniProt entry, the sequences of proteins in these tests, tags left out.
# UniProt Q0JBA9, entry or part of it: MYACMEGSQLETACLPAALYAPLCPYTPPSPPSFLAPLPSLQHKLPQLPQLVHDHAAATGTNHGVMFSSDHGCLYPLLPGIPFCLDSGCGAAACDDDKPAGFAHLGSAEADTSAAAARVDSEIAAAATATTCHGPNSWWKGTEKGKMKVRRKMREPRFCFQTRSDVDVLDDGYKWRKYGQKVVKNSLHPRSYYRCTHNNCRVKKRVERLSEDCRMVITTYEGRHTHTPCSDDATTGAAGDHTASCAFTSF
# Target: OsWRKY34 (Oryza sativa, UniProt Q0JBA9 1-250)
# Test: protein-binding microarray (RPBM); PBS, 2% BSA, 51.3 ng/ul salmon testes DNA, 50 uM zinc acetate, 200 nM TF, 25 C, 1 h; high values mean tight binding
# Settings: protein: recombinant; tags: N-terminal polyhistidine and DsRed monomer fusion (pET32a); label: CyDye5-dUTP incorporated in the synthesized complementary strand; 3' TTTTT single-stranded linker to array surface; dsDNA, one strand shown
# In short: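 Polyhistidine-tagged DsRed fusions of transcription factors, joined at the N-terminus, were expressed in E. coli BL21-CodonPlus and isolated on Ni–NTA. They were incubated at 200 nM for 1 h at 25 °C on a custom Agilent array, double-stranded and BSA-blocked, in PBS with 2% BSA, salmon testes DNA and 50 µM zinc acetate. The binding signal is per-feature fluorescence intensity (arbitrary units) read on an Axon 4000B scanner after washing.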
row,Sequence,binding signal
1,GCAAACTGCGGCCACCCTTTTATCACACAAATTTTTGACACGGAGTCACCTAGTGCAG,8040 fluorescence intensity (a.u.)
2,CTGCTTCGGTCGTCGGCCGCCTGTCCCGCTCAACCGGCCGCGGAGTCACCTAGTGCAG,10600 fluorescence intensity (a.u.)
3,CGCCTTCTCCGCCTTCGTCAGCAGCCGCAGCTTCTCCACGCGGAGTCACCTAGTGCAG,8860 fluorescence intensity (a.u.)
4,ATATATGTATTTTAAGAATTTAAGCACAGTTGACTTTTTTCGGAGTCACCTAGTGCAG,8550 fluorescence intensity (a.u.)
5,TTTTCAGCCTTTACTTTTAGATCGTTAAAAACACGTATATCGGAGTCACCTAGTGCAG,8300 fluorescence intensity (a.u.)
6,ATAAATTAGGTACTACCTATATGATCTTTTTTTCCATTTTCGGAGTCACCTAGTGCAG,8310 fluorescence intensity (a.u.)
7,GCAGATTCGCAGTCTTCAGTACCCGTTTAACCGTTCACAACGGAGTCACCTAGTGCAG,8540 fluorescence intensity (a.u.)
8,ACGCGAGCCGGCATGTATGGGTTGGGTGGGGAGCAGGCGGCGGAGTCACCTAGTGCAG,11600 fluorescence intensity (a.u.)
9,TCTCAGTTTTTTCTTTGTTGATTTACTGACCAAATTCTTTCGGAGTCACCTAGTGCAG,8320 fluorescence intensity (a.u.)
10,TCAAATTCTTGCGTGTCCATGTCACTACCCTTTTGTAACTCGGAGTCACCTAGTGCAG,11200 fluorescence intensity (a.u.)
11,GATCTACTGCTTGCTGCTGCTGCTACTAGCGTCTTCTTTCCGGAGTCACCTAGTGCAG,10000 fluorescence intensity (a.u.)
12,TCTCTCTCTTTCTGTCCATTTCTATCTGTGCTCTCGCCTGCGGAGTCACCTAGTGCAG,8090 fluorescence intensity (a.u.)
13,AACTTCCGTCCTTTTCCATCACATCAACGTGTCATACACACGGAGTCACCTAGTGCAG,10800 fluorescence intensity (a.u.)
14,GTCGTCTCGGTTCATCGTCAACTCAGCTCCTCTCTTTCTTCGGAGTCACCTAGTGCAG,8080 fluorescence intensity (a.u.)
15,AACCGGACTGGTTTCTCTTACGTGGCTCCCTTTACATTACCGGAGTCACCTAGTGCAG,8510 fluorescence intensity (a.u.)
16,TTCTAAGCCAGATTGTGACAGTAAACCTCCTAATAATTTTCGGAGTCACCTAGTGCAG,8290 fluorescence intensity (a.u.)
17,CAATGATCATTCTGTTTACACTGACGTACCAGCAGACCAACGGAGTCACCTAGTGCAG,8670 fluorescence intensity (a.u.)
18,AGGTTGCCAGCGTGTGGGGTGGGTTATTTTCGTGTGCGGGCGGAGTCACCTAGTGCAG,11100 fluorescence intensity (a.u.)
19,CCCGACCCACATCCTTCGCTGCACAGAGCATGCAGCATCTCGGAGTCACCTAGTGCAG,9020 fluorescence intensity (a.u.)
20,TACATTTATATTCGCTTCTGCTGCAGCAAAGTCACCATCTCGGAGTCACCTAGTGCAG,9210 fluorescence intensity (a.u.)
21,ATTTTGCTTTTCAGATTTTCCACAATACTGTCTCACTCAGCGGAGTCACCTAGTGCAG,8140 fluorescence intensity (a.u.)
22,GCCTTGTATATTAGTGGTCATGCTCATGGTCATTTTATTGCGGAGTCACCTAGTGCAG,8580 fluorescence intensity (a.u.)
23,CCAGGCCCATCACTTGCGTTGTGTGTTAATCCACCGTATCCGGAGTCACCTAGTGCAG,11800 fluorescence intensity (a.u.)
24,TCATCACCCACACACCAAGCAAGCACTCACTCTCTCTTGCCGGAGTCACCTAGTGCAG,8650 fluorescence intensity (a.u.)
25,CCATCGCTGCGGGTTCCCAGCCACTTTTGGAACTCCTCCTCGGAGTCACCTAGTGCAG,8410 fluorescence intensity (a.u.)
26,CCGCCGCTGTGCGCCTCGCCTCTCCGTCGACCGTGCCGCCCGGAGTCACCTAGTGCAG,10100 fluorescence intensity (a.u.)
27,CTACAAGCTATCAGTCTTCCTATGAACCGTATCTCCGGACCGGAGTCACCTAGTGCAG,8520 fluorescence intensity (a.u.)

# Single values from the entries so far:
# binding signal, TACATTTATATTCGCTTCTGCTGCAGCAAAGTCACCATCTCGGAGTCACCTAGTGCAG is entered as 9210 fluorescence intensity (a.u.)
# binding signal, TCTCTCTCTTTCTGTCCATTTCTATCTGTGCTCTCGCCTGCGGAGTCACCTAGTGCAG is entered as 8090 fluorescence intensity (a.u.)

# Reprinted at random: 2 entries already listed
row,Sequence,binding signal
27,CTACAAGCTATCAGTCTTCCTATGAACCGTATCTCCGGACCGGAGTCACCTAGTGCAG,8520 fluorescence intensity (a.u.)
15,AACCGGACTGGTTTCTCTTACGTGGCTCCCTTTACATTACCGGAGTCACCTAGTGCAG,8510 fluorescence intensity (a.u.)

# More records:

row,Sequence,binding signal
1,CGGTGGGCCAGCCACACGCCTTCAACCTCTGAACCACCACCGGAGTCACCTAGTGCAG,8140 fluorescence intensity (a.u.)
2,CGGCGGAGGAGGAGGAGGAGGGGTGGGGAAGAAGAGGGGACGGAGTCACCTAGTGCAG,22800 fluorescence intensity (a.u.)
3,CCGCATCATCGTTTGGCTTGGATCCGCATCACTGATTCACCGGAGTCACCTAGTGCAG,8270 fluorescence intensity (a.u.)
4,GAGCCCATTGTGAAATCTGTTTTGTACCCTTAGTCATCGTCGGAGTCACCTAGTGCAG,10200 fluorescence intensity (a.u.)
5,TCACGACGAAGATTTGTCACATTTTCTTGCTTCATTGACTCGGAGTCACCTAGTGCAG,8590 fluorescence intensity (a.u.)
6,ATCTCTCTCTAGAAGAGTCCACACCTCAAGTTTTACTGGTCGGAGTCACCTAGTGCAG,8410 fluorescence intensity (a.u.)
7,ACTATATACAACTAGTCATGCACCCTGCAGGTTGACTTTACGGAGTCACCTAGTGCAG,8270 fluorescence intensity (a.u.)
8,TGAGCATCTCGATCGATCATCTCTCTACACAACACGCACCCGGAGTCACCTAGTGCAG,9260 fluorescence intensity (a.u.)
9,CATCCCGCCGCGAGCCACCTACACCCGTTCCACCATACGCCGGAGTCACCTAGTGCAG,8550 fluorescence intensity (a.u.)
10,GATAGGGTTTCTCATAGATGATGTGGTAGTTGATTTAGACCGGAGTCACCTAGTGCAG,8690 fluorescence intensity (a.u.)
11,TCCGTTTTTTATGCGCACCCACCCCGGCATTTGCCTCCTTCGGAGTCACCTAGTGCAG,9690 fluorescence intensity (a.u.)
12,CACCATCCAAAGTATATTGTGTCTTAAATTTCACGTATTTCGGAGTCACCTAGTGCAG,8110 fluorescence intensity (a.u.)
13,CACGTCATCAGGCATCCACCCGCCTCTCGATTGATTCCCCCGGAGTCACCTAGTGCAG,8320 fluorescence intensity (a.u.)
14,CACCCTTCATATGCCGTAAAAATGGTTTTGTTTGTAAAAACGGAGTCACCTAGTGCAG,9070 fluorescence intensity (a.u.)
15,AATTGGTAGGGTAAAGAACCAGGCGCATCTTGCAAATCATCGGAGTCACCTAGTGCAG,8190 fluorescence intensity (a.u.)
16,ATGTCTGTCTGTCTAGATTTATTAACATATATATGAATTTCGGAGTCACCTAGTGCAG,9270 fluorescence intensity (a.u.)
17,ATATTTGACGCCGTTGACTTTTTTAAACATGTTTGACCGTCGGAGTCACCTAGTGCAG,44400 fluorescence intensity (a.u.)
18,GGCCACGCCCGCCTCCGCGATCGTCCTCGCCGGCGACTGCCGGAGTCACCTAGTGCAG,8410 fluorescence intensity (a.u.)
19,ATCCTCCATCCAATGAACGCCACACAGCTCTCAACCATATCGGAGTCACCTAGTGCAG,11700 fluorescence intensity (a.u.)
20,TATGTTGTTTCCAAAGTCTTATTTTCATTTTCTTTTGATGCGGAGTCACCTAGTGCAG,9580 fluorescence intensity (a.u.)
21,CTGCCAACTTTTGCCTAAGCAAGCCTGTTTCGTTACCAGCCGGAGTCACCTAGTGCAG,10300 fluorescence intensity (a.u.)
22,TTAATTGTTGGGATCTAGTATATATTTTGTTCCTACATCACGGAGTCACCTAGTGCAG,8190 fluorescence intensity (a.u.)
23,GCTACCTGTACTAAGTTATTTTGTTTTTTTAATGTTTCTTCGGAGTCACCTAGTGCAG,11700 fluorescence intensity (a.u.)
24,TATTTCGTGAGAGAGCTTCACCCAGCTCCGCTTCTATTTTCGGAGTCACCTAGTGCAG,8070 fluorescence intensity (a.u.)
25,ACGCCGTTGACTTTTTAAGCAACATTTGACCATTCGTTTTCGGAGTCACCTAGTGCAG,30000 fluorescence intensity (a.u.)
26,ATACGTGTACACAACCCATCCATCATCCTATAAGTGACAGCGGAGTCACCTAGTGCAG,8090 fluorescence intensity (a.u.)
27,GGATCCGTATGCTTTCGCACCCATGCTCGCGGCGTTTACTCGGAGTCACCTAGTGCAG,9280 fluorescence intensity (a.u.)

# Reference: PMC7819943, “Rice protein-binding microarrays: a tool to detect cis-acting elements near promoter regions in rice”
